Assay results as given in patent US6677433B2 (The Regents of the University of California, priority 2001, dated 2004).

B1: Soybean Kunitz: Kunitz soybean trypsin inhibitor (protein, UniProt P01070 25-205, looked up)
Trypsin inhibitor A: DFVLDNEGNPLENGGTYYILSDITAFGGIRAAPTGNERCPLTVVQSRNELDKGIGTIISSPYRIRFIAEGHPLSLKFDSFAVIMLCVGIPTEWSVVEDLPEGPAVKIGENKDAMDGWFRLERVSDDEFNNYKLVFCPQQAEDDKCGDIGISIDHDDGTRRLVVSKNKPLVVQFQKLDKESL

Assays:
[1] = Bread baking test, loaf volume; conditions: cv. Thesee flour 200 g
[2] = tested on: wheat protease preparation; assay: Proteolysis by a plant protease preparation (SDS-PAGE, laser densitometer); assay type: biochemical
Experimental: The endosperm (10-15 g fresh weight) isolated from 5-day germinated wheat seeds by excising the roots and shoots was extracted for 30 minutes at 4° C. with 5 volumes of 200 mM sodium acetate, pH 4.6, containing 10 mM β-mercaptoenthanol. The homogenate was centrifuged for 20 minutes at 48,000 g, 4° C. The pellet was discarded and the supernatant fluid was fractionated with 30-70% ammonium sulfate. This fraction, which represented the protease preparation, was resuspended in a minimum volume of 20 mM sodium acetate, pH 4.6, containing 10 mM β-mercaptoenthanol, and dialyzed against this buffer overnight at 4° C.
Unless indicated, the reduction of the trypsin inhibitors (0.4 mg/ml) was carried out in 0.1 ml of 20 mM sodium phosphate buffer, pH 7.9 containing 10 mM EDTA at 30° C. for 2 hours. The concentrations of thioredoxin, NTR, and NADPH were 0.024 mg/ml, 0.02 mg/ml, and 0.25 mM, respectively. […] Following reduction, aliquots of the inhibitor mixture were withdrawn either for determination of trypsin inhibitory activity or proteolytic susceptibility. In the subtilisin tests, the inhibitor mixture (50 μl) was directly mixed with subtilisin and incubated at room temperature for 1 hour. With the wheat protease preparation, the pH of the inhibitor mixture (50 μL) was first adjusted to 4.7 by mixing with 35 μl of 200 mM sodium acetate, pH 4.6; 10 μl of the wheat protease preparation was then added and incubation was continued for 2 hours at 37° C. To stop digestion with subtilisin, 2 μl of 100 mM phenylmethylsulfonyl fluoride (PMSF) and 10 μl of 10% SDS were added to the digestion mixture. With the plant protease preparation, digestion was stopped by adding an equal volume of SDS sample buffer [0.125 M Tris-HCl, pH 6.8, 4% (w/v) SDS, 20% (v/v) glycerol, 10% (v/v) β-mercaptoethanol, and 0.02% (w/v) bromophenol blue]. Proteolytic products were analyzed by electrophoresis with 12% or 16% SDS polyacrylamide slab gels (Laemmli, 1970). The dried slab gels were scanned with a laser densitometer (Pharmacia-LKB UltraScan XL) and the peak area of the KTI or BBTI protein band was obtained by integration with a Pharmacia GelScan XL software program.
To test whether the reduced forms of KTI and BBTI show decreased stability to proteases other than trypsin, both the reduced and oxidized forms of KTI and BBTI were incubated with a wheat protease preparation or with subtilisin and the proteolytic products were analyzed by SDS-PAGE. The extent of proteolysis was determined by measuring the abundance of intact protein on SDS gels by laser densitometer. When tested with a protease preparation from 5-day germinated wheat seeds, the oxidized form of the Kunitz inhibitor was almost completely resistant to digestion whereas the thioredoxin-reduced form was susceptible to protease. […] The nature of the proteolytic reaction was not investigated, but it is noted that peptide products were not detected on SDS gels.

Row | Molecule | Loaf Volume, Relative Units ([1]; control = 100) | Loaf Volume ([1]; where added NADPH 6.0, NTR 30 μg, Th 60 μg (yeast: NTR 9.4, Th 20), control 1690) [cm3] | Relative Abundance, Protease, NTS minus NADPH [2] | Relative Abundance, Protease, NTS minus NTR [2] | Relative Abundance, Protease, NTS minus thioredoxin [2] | Relative Abundance, Protease, No reduction system ([2]; no protease = 100, 37° C., 2 hours, pH 4.7) | Relative Abundance, Protease, E. coli NTS ([2]; reduction 30° C., 2 hours)
1 | NC(=O)C1=CN([C@@H]2O[C@H](COP(=O)(O)OP(=O)(O)OC[C@H]3O[C@@H](n4cnc5c(N)ncnc54)[C@H](OP(=O)(O)O)[C@@H]3O)[C@@H](O)[C@H]2O)C=CC1 [NADPH] | 92 | 1550 | – | – | – | – | –
2 | B1 | – | – | 97.7 | 97.9 | 90.2 | 97.9 | 22.1
